Measurements from PMC8657445.
These are yes or no findings as the source states them, for the method shown. Binding seen in cells or lysates may run through a third protein. Some binding calls cover weakened binding; strength is not graded here. Tags and fused reporters may be left off the sequences shown.

Tests used:
[1] = molecular target: T1, AtPII-nYFP (Arabidopsis thaliana) (UniProt Q9ZST4); test: split reporter; BiFC with nYFP and cYFP fusions from one 2in1 pBiFC vector under p35S; N. benthamiana leaves three days after transient transformation; internal RFP as transformation control
T1 sequence: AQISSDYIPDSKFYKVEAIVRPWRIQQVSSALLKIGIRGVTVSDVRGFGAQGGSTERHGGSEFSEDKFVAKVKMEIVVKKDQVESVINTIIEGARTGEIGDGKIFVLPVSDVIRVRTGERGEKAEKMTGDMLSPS

[2] = molecular target: T2, AtPII-GFP (Arabidopsis thaliana) (UniProt Q9ZST4); test: co-IP; GFP-tagged proteins isolated with GFP traps from protein extracts of co-infiltrated tobacco leaves; co-eluted mCherry-tagged proteins detected by Western blot with an anti-RFP antibody
T2 sequence: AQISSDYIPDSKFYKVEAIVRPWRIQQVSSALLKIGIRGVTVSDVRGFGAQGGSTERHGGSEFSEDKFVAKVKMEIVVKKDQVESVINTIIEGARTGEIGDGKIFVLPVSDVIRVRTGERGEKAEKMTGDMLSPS

[3] = molecular target: T2, AtPII-GFP (Arabidopsis thaliana); test: FRET or BRET; FRET/FLIM: GFP donor lifetime of co-localising GFP and mCherry signals against AtPII-GFP alone; 2in1 pFRET vectors under p35S; transiently transformed N. benthamiana leaf disks, plastids in the epidermis
[4] = molecular target: T3, AtPII-nYFP (Arabidopsis thaliana), Q9ZST4; test: split reporter; BiFC with nYFP and cYFP fusions from one 2in1 pBiFC vector under p35S; N. benthamiana leaves three days after transient transformation; internal RFP as transformation control; details: remark: other sources report otherwise
T3 chain: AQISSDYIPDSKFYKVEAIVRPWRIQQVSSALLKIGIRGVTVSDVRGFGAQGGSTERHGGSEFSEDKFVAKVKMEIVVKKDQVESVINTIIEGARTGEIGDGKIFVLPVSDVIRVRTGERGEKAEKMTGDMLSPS

[5] = molecular target: T4, AtPII-GFP (Arabidopsis thaliana), Q9ZST4; test: FRET or BRET; FRET/FLIM: GFP donor lifetime of co-localising GFP and mCherry signals against AtPII-GFP alone; 2in1 pFRET vectors under p35S; transiently transformed N. benthamiana leaf disks, plastids in the epidermis; details: remark: other sources report otherwise
T4 chain: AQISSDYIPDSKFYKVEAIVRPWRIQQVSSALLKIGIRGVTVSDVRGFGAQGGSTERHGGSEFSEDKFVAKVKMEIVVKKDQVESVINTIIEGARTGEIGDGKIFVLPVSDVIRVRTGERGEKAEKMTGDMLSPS

B1: AtPII-nYFP (protein, UniProt Q9ZST4 62-196)
chain: AQISSDYIPDSKFYKVEAIVRPWRIQQVSSALLKIGIRGVTVSDVRGFGAQGGSTERHGGSEFSEDKFVAKVKMEIVVKKDQVESVINTIIEGARTGEIGDGKIFVLPVSDVIRVRTGERGEKAEKMTGDMLSPS
B1 was tested, and the binding [1] was “binds”.

B2: AtPII-GFP (protein, UniProt Q9ZST4 62-196)
chain: AQISSDYIPDSKFYKVEAIVRPWRIQQVSSALLKIGIRGVTVSDVRGFGAQGGSTERHGGSEFSEDKFVAKVKMEIVVKKDQVESVINTIIEGARTGEIGDGKIFVLPVSDVIRVRTGERGEKAEKMTGDMLSPS
In the case of B2, the binding [2] is reported as “binds” and the binding [3] is reported as “binds”.

B3: AtNAGK-mCherry (enzyme, UniProt Q9SCL7 51-347)
chain: TVSTPPSIATGNAPSPDYRVEILSESLPFIQKFRGKTIVVKYGGAAMTSPELKSSVVSDLVLLACVGLRPILVHGGGPDINRYLKQLNIPAEFRDGLRVTDATTMEIVSMVLVGKVNKNLVSLINAAGATAVGLSGHDGRLLTARPVPNSAQLGFVGEVARVDPSVLRPLVDYGYIPVIASVAADDSGQAYNINADTVAGELAAALGAEKLILLTDVAGILENKEDPSSLIKEIDIKGVKKMIEDGKVAGGMIPKVKCCIRSLAQGVKTASIIDGRRQHSLLHEIMSDEGAGTMITG
B3 was tested, and the binding [2] was “binds” and the binding [3] was “binds”.

B4: AtNAGK-cYFP (enzyme, UniProt Q9SCL7 51-347)
chain: TVSTPPSIATGNAPSPDYRVEILSESLPFIQKFRGKTIVVKYGGAAMTSPELKSSVVSDLVLLACVGLRPILVHGGGPDINRYLKQLNIPAEFRDGLRVTDATTMEIVSMVLVGKVNKNLVSLINAAGATAVGLSGHDGRLLTARPVPNSAQLGFVGEVARVDPSVLRPLVDYGYIPVIASVAADDSGQAYNINADTVAGELAAALGAEKLILLTDVAGILENKEDPSSLIKEIDIKGVKKMIEDGKVAGGMIPKVKCCIRSLAQGVKTASIIDGRRQHSLLHEIMSDEGAGTMITG
In the case of B4, the binding [1] is reported as “binds”.

B5: AtBCCP1-cYFP, Q42533 83-280 (protein)
chain: SAEGKEKNSLKESSASSPELATEESISEFLTQVTTLVKLVDSRDIVELQLKQLDCELVIRKKEALPQPQAPASYVMMQQPNQPSYAQQMAPPAAPAAAAPAPSTPASLPPPSPPTPAKSSLPTVKSPMAGTFYRSPAPGEPPFIKVGDKVQKGQVLCIVEAMKLMNEIESDHTGTVVDIVAEDGKPVSLDTPLFVVQP
B5 was tested, and the binding [4] was “binds”.

B6: AtBCCP1-mCherry, Q42533 83-280 (protein)
chain: SAEGKEKNSLKESSASSPELATEESISEFLTQVTTLVKLVDSRDIVELQLKQLDCELVIRKKEALPQPQAPASYVMMQQPNQPSYAQQMAPPAAPAAAAPAPSTPASLPPPSPPTPAKSSLPTVKSPMAGTFYRSPAPGEPPFIKVGDKVQKGQVLCIVEAMKLMNEIESDHTGTVVDIVAEDGKPVSLDTPLFVVQP
With B6 the binding [5] was “binds”.

B7: AtDXS-mCherry (enzyme, UniProt Q38854 59-717)
chain: ASLAEKGEYYSNRPPTPLLDTINYPIHMKNLSVKELKQLSDELRSDVIFNVSKTGGHLGSSLGVVELTVALHYIFNTPQDKILWDVGHQSYPHKILTGRRGKMPTMRQTNGLSGFTKRGESEHDCFGTGHSSTTISAGLGMAVGRDLKGKNNNVVAVIGDGAMTAGQAYEAMNNAGYLDSDMIVILNDNKQVSLPTATLDGPSPPVGALSSALSRLQSNPALRELREVAKGMTKQIGGPMHQLAAKVDEYARGMISGTGSSLFEELGLYYIGPVDGHNIDDLVAILKEVKSTRTTGPVLIHVVTEKGRGYPYAERADDKYHGVVKFDPATGRQFKTTNKTQSYTTYFAEALVAEAEVDKDVVAIHAAMGGGTGLNLFQRRFPTRCFDVGIAEQHAVTFAAGLACEGLKPFCAIYSSFMQRAYDQVVHDVDLQKLPVRFAMDRAGLVGADGPTHCGAFDVTFMACLPNMIVMAPSDEADLFNMVATAVAIDDRPSCFRYPRGNGIGVALPPGNKGVPIEIGKGRILKEGERVALLGYGSAVQSCLGAAVMLEERGLNVTVADARFCKPLDRALIRSLAKSHEVLITVEEGSIGGFGSHVVQFLALDGLLDGKLKWRPMVLPDRYIDHGAPADQLAEAGLMPSHIAATALNLIGAPREALF
B7 was tested, and the binding [3] was “binds”.
